The source of these data is paper PMC2801614.

Negatives hold for the conditions tested. The comparison behind a weaker result is the experiment's own reference, which may not be listed here. The exact form of at least one protein or probe is not confirmed.

The series has as its system alphaCTD (C-terminal domain of RNA polymerase alpha subunit) + Spx wild-type. As to the kind of experiment: EMSA. Particulars: EMSA: 20 mM Tris-HCl pH 7.8, 50 mM NaCl, 5 mM MgCl2, 10% glycerol, 5 uM each protein unless stated, room temperature (10 min preincubation, 15 min with probe), recombinant protein.

Turning to “TAATCGTGTTGAGCAAAAAAATAGCGTATCACCATG (double strand) [trxB promoter (-56 to -21)]”, the binding result runs as follows: (5 uM each, no DTT, supershifted ternary complex) “binds”; (with DTT, ternary complex not formed) “no binding”.
As to “TAATCGTGTTGAACAAAAAAATAACGTATCACCATG (double strand) [trxB (-56 to -21) G-44A G-33A]”, the binding result (supershift less abundant than with wild-type trxB) is listed as “binds more weakly”.
